Assay results reported in article PMC8206348.
These are yes or no findings as the source states them, for the method shown. In cells and extracts the contact can be indirect.

By UniProt entry, the sequences of proteins in these tests, tags left out.
UniProt Q9Y5U2: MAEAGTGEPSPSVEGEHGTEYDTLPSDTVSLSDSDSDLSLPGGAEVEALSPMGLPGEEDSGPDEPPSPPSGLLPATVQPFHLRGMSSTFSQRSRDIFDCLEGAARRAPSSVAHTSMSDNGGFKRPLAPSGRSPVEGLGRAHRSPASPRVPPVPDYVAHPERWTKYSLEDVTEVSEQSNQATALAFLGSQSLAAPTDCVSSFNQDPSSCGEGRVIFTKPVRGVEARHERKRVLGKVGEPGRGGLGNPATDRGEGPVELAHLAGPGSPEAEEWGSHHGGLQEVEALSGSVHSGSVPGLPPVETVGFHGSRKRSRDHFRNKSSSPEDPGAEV

B1: SART3 (protein, UniProt Q15020 1-963)
chain: MATAAETSASEPEAESKAGPKADGEEDEVKAARTRRKVLSRAVAAATYKTMGPAWDQQEEGVSESDGDEYAMASSAESSPGEYEWEYDEEEEKNQLEIERLEEQLSINVYDYNCHVDLIRLLRLEGELTKVRMARQKMSEIFPLTEELWLEWLHDEISMAQDGLDREHVYDLFEKAVKDYICPNIWLEYGQYSVGGIGQKGGLEKVRSVFERALSSVGLHMTKGLALWEAYREFESAIVEAARLEKVHSLFRRQLAIPLYDMEATFAEYEEWSEDPIPESVIQNYNKALQQLEKYKPYEEALLQAEAPRLAEYQAYIDFEMKIGDPARIQLIFERALVENCLVPDLWIRYSQYLDRQLKVKDLVLSVHNRAIRNCPWTVALWSRYLLAMERHGVDHQVISVTFEKALNAGFIQATDYVEIWQAYLDYLRRRVDFKQDSSKELEELRAAFTRALEYLKQEVEERFNESGDPSCVIMQNWARIEARLCNNMQKARELWDSIMTRGNAKYANMWLEYYNLERAHGDTQHCRKALHRAVQCTSDYPEHVCEVLLTMERTEGSLEDWDIAVQKTETRLARVNEQRMKAAEKEAALVQQEEEKAEQRKRARAEKKALKKKKKIRGPEKRGADEDDEKEWGDDEEEQPSKRRRVENSIPAAGETQNVEVAAGPAGKCAAVDVEPPSKQKEKAASLKRDMPKVLHDSSKDSITVFVSNLPYSMQEPDTKLRPLFEACGEVVQIRPIFSNRGDFRGYCYVEFKEEKSALQALEMDRKSVEGRPMFVSPCVDKSKNPDFKVFRYSTSLEKHKLFISGLPFSCTKEELEEICKAHGTVKDLRLVTNRAGKPKGLAYVEYENESQASQAVMKMDGMTIKENIIKVAISNPPQRKVPEKPETRKAPGGPMLLPQTYGARGKGRTQLSLLPRALQRPSAAAPQAENGPAAAPAVAAPAATEAPKMSNADFAKLFLRK
B2: PRPF4 (protein, UniProt O43172 1-522)
chain: MASSRASSTQATKTKAPDDLVAPVVKKPHIYYGSLEEKERERLAKGESGILGKDGLKAGIEAGNINITSGEVFEIEEHISERQAEVLAEFERRKRARQINVSTDDSEVKACLRALGEPITLFGEGPAERRERLRNILSVVGTDALKKTKKDDEKSKKSKEEYQQTWYHEGPNSLKVARLWIANYSLPRAMKRLEEARLHKEIPETTRTSQMQELHKSLRSLNNFCSQIGDDRPISYCHFSPNSKMLATACWSGLCKLWSVPDCNLLHTLRGHNTNVGAIVFHPKSTVSLDPKDVNLASCAADGSVKLWSLDSDEPVADIEGHTVRVARVMWHPSGRFLGTTCYDRSWRLWDLEAQEEILHQEGHSMGVYDIAFHQDGSLAGTGGLDAFGRVWDLRTGRCIMFLEGHLKEIYGINFSPNGYHIATGSGDNTCKVWDLRQRRCVYTIPAHQNLVTGVKFEPIHGNFLLTGAYDNTAKIWTHPGWSPLKTLAGHEGKVMGLDISSDGQLIATCSYDRTFKLWMAE

Assays:
[1] = molecular target: TSSC4-GFP (human) (UniProt Q9Y5U2); assay: co-IP; anti-GFP or anti-FLAG antibodies pre-bound to agarose beads, overnight at 4 °C; lysates of transfected HeLa cells in NET2 buffer (50 mM Tris-HCl pH 7.4, 150 mM NaCl, 0.05% Nonidet P-40); western blot; also from RNase A treated lysates (Fig. 1d)
[2] = molecular target: TSSC4-FLAG (human) (UniProt Q9Y5U2); assay: as above
[3] = molecular target: TSSC4-FLAG (human) (UniProt Q9Y5U2); assay: co-IP + co-sedimentation; TSSC4-FLAG immunoprecipitated, complexes eluted with triple FLAG peptide and resolved on a 10–30% glycerol gradient (130,000×g, 17 h, 4 °C; 20 mM HEPES/KOH pH 8.0, 150 mM KCl, 1.5 mM MgCl2); western blot of the fractions

| Binder | binding [1] | binding [2] | binding [3] |
| --- | --- | --- | --- |
| B1 | no binding | no binding | – |
| B2 | – | – | no binding |
